Values quoted from earlier work, collected in patent publication US4999424A, “GAR transformylase inhibitor” (The Pennsylvania State University, priority 1988, dated 1991).
For at least one compound, name, drawing or mass did not settle the structure.

Test system: GAR TFase
Conditions: cited from earlier work

## Nc1nc2ccc(CN(C(=O)CBr)c3ccc(C(=O)N[C@@H](CCC(=O)O)C(=O)O)cc3)cc2c(=O)[nH]1 [N^10-(bromoacetyl)-5,8-dideazafolate]
  Inactivation of the enzyme: irreversible inactivator
